Source: PubChem BioAssay AID248 (DTP/NCI, 2004)
The list is a part of this screen's results and no random one: it is rich in T/C values a quarter to a half above the control, in often repeated tests (any T/C) and in doses without a T/C. Further doses and runs are listed elsewhere. T/C: endpoint of the treated group in % of that of the vehicle group. Some entries give survivors of the animals treated and no T/C: the source holds a T/C of zero for them, seemingly a mark for toxic or unscored doses. Some survivor counts are full or nearly so, which does not show that the dose was tolerated: the source hardly ever lists a survival T/C far under the control, and the zero likely stands for such cases as well. Counts of survivors are from the toxicity check (mostly the fifth day) where no day follows; animals may have died later. Schedules are NCI's codes, taken here to give the interval after Q, in days (D) or hours (H), and the number of doses after X. Some molecules as drawn cover several salts, stereoisomers or complexes of the source; a dose is that of the sample tested. Some entries were tested several times; their values stand side by side, smallest first. Where survival is the endpoint, the PubChem record calls one and a half times the control and up active, and a quarter to a half above the control has no call in these data; cut-offs in other NCI protocols can differ. Some T/C values carry the count of animals alive at the toxicity check (mostly the fifth day); where none is given, no animal had died by that day.

System: L1210 leukemia ip in BDF1 mice, survival T/C
Assay: NCI In Vivo Anticancer Drug Screen. Data for tumor model L1210 Leukemia (intraperitoneal) in B6D2F1 (BDF1) mice
Conditions: T/C endpoint: median survival time, vehicle: saline, higher T/C = longer survival

## NC(C/[N+]([O-])=N/O)C(=O)O (stereo unspecified)
dose: 16.0 mg/kg/injection, schedule: Q03HX024 (ip)
  T/C: 133 % of control
dose: 32.0 mg/kg/injection, schedule: Q01DX009 (ip), evaluated on day 60
  T/C: 138 % of control
dose: 32.0 mg/kg/injection, schedule: Q01DX009 (ip), evaluated on day 62
  T/C: 133 % of control
dose: 32.0 mg/kg/injection, schedule: Q03HX008 (ip)
  T/C: 133 % of control
dose: 32.0 mg/kg/injection, schedule: Q03HX016 (ip)
  T/C: 138 % of control
dose: 32.0 mg/kg/injection, schedule: Q03HX024 (ip)
  T/C: 144 % of control
dose: 32.0 mg/kg/injection, schedule: Q04DX003 (ip)
  T/C: 133 % of control
dose: 64.0 mg/kg/injection, schedule: Q01DX009 (oral)
  survivor count: 8 of 10 and 9 of 10
dose: 64.0 mg/kg/injection, schedule: Q01DX009 (sc)
  T/C: 133 % of control
dose: 64.0 mg/kg/injection, schedule: Q03HX008 (ip)
  T/C: 144 % of control [9 of 10 alive]
dose: 64.0 mg/kg/injection, schedule: Q04DX003 (ip)
  T/C: 133 % of control
dose: 64.0 mg/kg/injection, schedule: Q04DX003 (sc)
  T/C: 133 % of control
dose: 64.0 mg/kg/injection, schedule: Q08DX002 (ip)
  T/C: 133 % of control
dose: 128.0 mg/kg/injection, schedule: Q01DX001 (ip)
  T/C: 133 % of control
dose: 128.0 mg/kg/injection, schedule: Q01DX001 (sc)
  T/C: 133 % of control
dose: 128.0 mg/kg/injection, schedule: Q01DX009 (ip)
  survivor count: 10 of 10
dose: 128.0 mg/kg/injection, schedule: Q01DX009 (oral)
  survivor count: 7 of 10
dose: 128.0 mg/kg/injection, schedule: Q01DX009 (sc)
  survivor count: 9 of 10 and 10 of 10
dose: 128.0 mg/kg/injection, schedule: Q03HX008 (ip)
  T/C: 144 % of control [9 of 10 alive]
dose: 128.0 mg/kg/injection, schedule: Q04DX003 (ip), evaluated on day 19
  T/C: 138 % of control
dose: 128.0 mg/kg/injection, schedule: Q04DX003 (ip), evaluated on day 60
  T/C: 144 % of control
dose: 128.0 mg/kg/injection, schedule: Q04DX003 (sc)
  T/C: 138 % of control
dose: 128.0 mg/kg/injection, schedule: Q08DX002 (ip)
  T/C: 133 % of control
dose: 256.0 mg/kg/injection, schedule: Q01DX001 (ip)
  T/C: 133 % of control
dose: 256.0 mg/kg/injection, schedule: Q01DX001 (sc)
  T/C: 133 % of control
dose: 256.0 mg/kg/injection, schedule: Q01DX009 (ip)
  survivor count: 3 of 10
dose: 256.0 mg/kg/injection, schedule: Q01DX009 (oral)
  survivor count: 3 of 10
dose: 256.0 mg/kg/injection, schedule: Q01DX009 (sc)
  survivor count: 10 of 10
dose: 256.0 mg/kg/injection, schedule: Q03HX008 (ip)
  survivor count: 7 of 10
dose: 256.0 mg/kg/injection, schedule: Q03HX016 (ip)
  T/C: 138 % of control [8 of 10 alive]
dose: 256.0 mg/kg/injection, schedule: Q03HX024 (ip)
  survivor count: 8 of 10
dose: 256.0 mg/kg/injection, schedule: Q04DX003 (sc)
  T/C: 127 % of control
dose: 256.0 mg/kg/injection, schedule: Q08DX002 (ip)
  T/C: 133 % of control
dose: 256.0 mg/kg/injection, schedule: Q08DX002 (sc)
  T/C: 133 % of control
dose: 400.0 mg/kg/injection, schedule: Q04DX003 (ip)
  T/C: 133 % of control [5 of 6 alive]
dose: 512.0 mg/kg/injection, schedule: Q01DX001 (oral)
  T/C: 127 % of control
dose: 512.0 mg/kg/injection, schedule: Q01DX009 (ip)
  survivor count: 2 of 10
dose: 512.0 mg/kg/injection, schedule: Q01DX009 (oral)
  survivor count: 3 of 10
dose: 512.0 mg/kg/injection, schedule: Q01DX009 (sc)
  survivor count: 8 of 10
dose: 512.0 mg/kg/injection, schedule: Q04DX003 (ip)
  T/C: 127 % of control
dose: 512.0 mg/kg/injection, schedule: Q04DX003 (oral)
  T/C: 138 % of control [9 of 10 alive]
dose: 512.0 mg/kg/injection, schedule: Q08DX002 (sc)
  T/C: 144 % of control
dose: 600.0 mg/kg/injection, schedule: Q04DX003 (ip)
  T/C: 127 and 144 % of control [5 of 6 alive]
dose: 800.0 mg/kg/injection, schedule: Q04DX003 (ip)
  T/C: 133 and 144 % of control
dose: 1000.0 mg/kg/injection, schedule: Q04DX003 (ip)
  T/C: 138 % of control
dose: 1024.0 mg/kg/injection, schedule: Q01DX001 (ip)
  T/C: 133 % of control [9 of 10 alive]
dose: 1024.0 mg/kg/injection, schedule: Q01DX009 (ip)
  survivor count: 0 of 10
dose: 1024.0 mg/kg/injection, schedule: Q01DX009 (oral)
  survivor count: 0 of 10
dose: 1024.0 mg/kg/injection, schedule: Q01DX009 (sc)
  survivor count: 5 of 10
dose: 1024.0 mg/kg/injection, schedule: Q08DX002 (ip)
  T/C: 144 % of control [9 of 10 alive]
dose: 1024.0 mg/kg/injection, schedule: Q08DX002 (sc)
  T/C: 144 % of control
